From PMC3460870 come the findings set out here.

The target of the assay is T1, endogenous Vangl2 (human (endogenous in SKBR7)) (UniProt Q9ULK5).
T1 sequence: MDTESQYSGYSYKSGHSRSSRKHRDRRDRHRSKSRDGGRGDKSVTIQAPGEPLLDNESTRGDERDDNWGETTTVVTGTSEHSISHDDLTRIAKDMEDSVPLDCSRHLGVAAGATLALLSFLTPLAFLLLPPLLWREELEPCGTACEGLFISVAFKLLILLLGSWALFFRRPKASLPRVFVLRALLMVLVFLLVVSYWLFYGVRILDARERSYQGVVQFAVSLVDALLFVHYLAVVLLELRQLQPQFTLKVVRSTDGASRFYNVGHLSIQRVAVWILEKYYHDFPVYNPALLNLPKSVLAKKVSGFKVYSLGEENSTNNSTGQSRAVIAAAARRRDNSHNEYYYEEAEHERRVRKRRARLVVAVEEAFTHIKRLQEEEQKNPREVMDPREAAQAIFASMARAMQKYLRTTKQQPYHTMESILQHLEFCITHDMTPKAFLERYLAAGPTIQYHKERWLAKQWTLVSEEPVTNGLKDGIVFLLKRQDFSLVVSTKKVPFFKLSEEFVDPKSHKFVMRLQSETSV
Put plainly: affinity purification with mass spectrometry; 2G4 mAb immunoprecipitation of endogenous Vangl2 from pre-cleared SKBR7 cell extracts (lysis buffer 150 mM NaCl, 20 mM Hepes, 5 mM EDTA, 1% NP40); band at about 60 kD excised, in-gel trypsin digestion, LC and Orbitrap; repeated with SKBR7 cells treated with shLuc or shVangl2.

These are yes or no findings as the source states them, for the method shown. Binding seen in cells or lysates may run through a third protein. Here binding means that the protein was enriched with, or labelled near, the bait; the list need not be complete.

B1: endogenous Vangl1 (protein, UniProt Q8TAA9 1-524)
chain: MDTESTYSGYSYYSSHSKKSHRQGERTRERHKSPRNKDGRGSEKSVTIQPPTGEPLLGNDSTRTEEVQDDNWGETTTAITGTSEHSISQEDIARISKDMEDSVGLDCKRYLGLTVASFLGLLVFLTPIAFILLPPILWRDELEPCGTICEGLFISMAFKLLILLIGTWALFFRKRRADMPRVFVFRALLLVLIFLFVVSYWLFYGVRILDSRDRNYQGIVQYAVSLVDALLFIHYLAIVLLELRQLQPMFTLQVVRSTDGESRFYSLGHLSIQRAALVVLENYYKDFTIYNPNLLTASKFRAAKHMAGLKVYNVDGPSNNATGQSRAMIAAAARRRDSSHNELYYEEAEHERRVKKRKARLVVAVEEAFIHIQRLQAEEQQKAPGEVMDPREAAQAIFPSMARALQKYLRITRQQNYHSMESILQHLAFCITNGMTPKAFLERYLSAGPTLQYDKDRWLSTQWRLVSDEAVTNGLRDGIVFVLKCLDFSLVVNVKKIPFIILSEEFIDPKSHKFVLRLQSETSV
On to B1, for which the binding result is on record as “binds”.
